Consider eight molecules from publication PMC6449940, “The Cdc42 effectors Gic1 and Gic2 regulate polarized post-Golgi secretion” (Cell & Bioscience, 2019).

By UniProt entry, the sequences of proteins in these tests, tags left out. Where a name states a change or a piece, a line headed by the entry shows the natural chain unless it says otherwise. Residues count along the entry.
UniProt P33332, 71-241: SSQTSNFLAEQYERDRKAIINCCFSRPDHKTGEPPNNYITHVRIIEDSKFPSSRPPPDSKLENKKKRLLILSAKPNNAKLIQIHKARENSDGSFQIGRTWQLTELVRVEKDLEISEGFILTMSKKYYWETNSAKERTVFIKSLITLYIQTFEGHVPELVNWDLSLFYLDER

Assay [1] deals with GST-Sec3N (a.a.71–241) (S. cerevisiae (budding yeast)) (UniProt P33332). Description: pull-down; GST-Sec3N (a.a.71–241) on glutathione Sepharose, His6-Cdc42 or mutant in the presence of GDP; bound protein detected with anti-Hisx6 antibody; both purified.
Assay [2] deals with T1, Sec5-GFP (S. cerevisiae (endogenous in yeast)) (UniProt P89102).
T1 sequence: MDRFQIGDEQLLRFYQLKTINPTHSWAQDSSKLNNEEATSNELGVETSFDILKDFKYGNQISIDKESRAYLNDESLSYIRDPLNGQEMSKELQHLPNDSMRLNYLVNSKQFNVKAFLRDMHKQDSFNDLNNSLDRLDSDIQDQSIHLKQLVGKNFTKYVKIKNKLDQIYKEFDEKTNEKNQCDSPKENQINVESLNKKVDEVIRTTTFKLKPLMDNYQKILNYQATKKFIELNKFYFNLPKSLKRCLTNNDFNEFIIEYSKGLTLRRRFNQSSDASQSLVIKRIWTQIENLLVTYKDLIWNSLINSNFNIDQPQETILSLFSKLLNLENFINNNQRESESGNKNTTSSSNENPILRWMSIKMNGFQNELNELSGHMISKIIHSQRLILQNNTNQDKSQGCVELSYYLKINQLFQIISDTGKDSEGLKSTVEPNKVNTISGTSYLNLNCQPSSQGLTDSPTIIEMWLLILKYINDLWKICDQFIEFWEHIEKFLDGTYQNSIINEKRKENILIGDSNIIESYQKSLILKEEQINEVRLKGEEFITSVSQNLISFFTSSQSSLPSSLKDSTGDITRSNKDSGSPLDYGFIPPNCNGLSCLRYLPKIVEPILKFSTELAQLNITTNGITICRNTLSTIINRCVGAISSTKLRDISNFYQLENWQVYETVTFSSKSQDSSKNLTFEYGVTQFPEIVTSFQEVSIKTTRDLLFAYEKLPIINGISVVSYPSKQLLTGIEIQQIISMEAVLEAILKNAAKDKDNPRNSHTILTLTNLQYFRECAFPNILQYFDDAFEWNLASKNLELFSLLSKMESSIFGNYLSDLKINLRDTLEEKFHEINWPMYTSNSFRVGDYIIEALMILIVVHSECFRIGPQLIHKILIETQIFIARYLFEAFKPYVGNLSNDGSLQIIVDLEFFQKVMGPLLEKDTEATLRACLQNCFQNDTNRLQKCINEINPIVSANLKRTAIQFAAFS
Description: co-IP; yeast lysates of wild-type, sec3∆N, gic1∆gic2∆ and triple mutant strains, cells at 25°C or shifted to 37°C for 2 h; Sec5-GFP immuno-isolated with anti-GFP antibody and protein G beads, 50 mM Tris–HCl pH 7.5, 150 mM NaCl, 4 °C; blots for exocyst components.

No constants are given. Whether binding was seen depends on the method and setting. For some assays here: Binding seen in cells or lysates may run through a third protein. Some results given as binding are weak or reduced against the parent protein; the word gives no strength. For some assays here: Sequences can lack the tags named with a protein.

Regarding “His6-cdc42-301 (V36A) (from UniProt P19073 1-191)”, the binding result in assay [1] is recorded as “no binding”. The same measure, in the same setting: then “His6-cdc42-302 (V36A F37A) (from UniProt P19073 1-191)”, with “no binding”; and “His6-cdc42-303 (Q61A) (from UniProt P19073 1-191)”, with “no binding”; and “His6-cdc42-304 (Y64A) (from UniProt P19073 1-191)”, with “no binding”. On to “His6-cdc42-305 (Y64A R66A) (from UniProt P19073 1-191)”, for which the binding result in assay [1] was “no binding”.

B1: Sec10 (protein, UniProt Q06245 1-871)
chain: MNSLYELDPKWKKLLKTDNFLGGLTVNEFVQELSKDHRNDVLIDANTKNLPTNEKDQDAIREAIWKQLDPKPYIRTFESTLKELKNLNEETLNKRQYFSEQVATQEVIHSENVIKLSKDLHTTLLTFDKLDDRLTNVTQVVSPLGDKLETAIKKKQNYIQSVELIRRYNDFYSMGKSDIVEQLRLSKNWKLNLKSVKLMKNLLILSSKLETSSIPKTINTKLVIEKYSEMMENELLENFNSAYRENNFTKLNEIAIILNNFNGGVNVIQSFINQHDYFIDTKQIDLENEFENVFIKNVKFKEQLIDFENHSVIIETSMQNLINDVETVIKNESKIVKRVFEEKATHVIQLFIQRVFAQKIEPRFEVLLRNSLSISNLAYVRILHGLFTLFGKFTKSLIDYFQLLEIDDSNQILSTTLEQCFADLFSHYLYDRSKYFGIEKRSLEAILVDMTSKFTVNYDKEINKRVLLDKYKEKLSTNVDAFMHSPRGNTHSRQDSTSRSKLSQFNSFLKTHLDKDHLSLNRTNTLSDSFNNSSSSTQYDVANNSSSLVNSSFTASDIDNSPNSPANYSLNDVDSMLKCVVESTARVMELIPNKAHLYILEILKIMFLGIVDSYMEIALEVAYWKICKVDINKTAGVVNLNFLKFISMSTEILDLLSISIKSIFLPLLNNSPEIKAQIIEMTNSQIQKMEILINIILQETITVISTKFSAILCKQKKKDFVPKSQELLDQDTLPAIEIVNILNLIFEQSSKFLKGKNLQTFLTLIGEELYGLLLSHYSHFQVNSIGGVVVTKDIIGYQTAIEDWGVASLIDKFATLRELANLFTVQPELLESLTKEGHLADIGRDIIQSYISNREDFNHDNFINSVKLNFR
Consider B1, for which the binding entry in assay [2] is on record as “binds”.

B2: Sec15 (protein, UniProt P22224 1-910)
chain: MDQEGQPLLSKDFQQVLLATASGNNSSWTERAVLNNESTDAVKHEPALGQNDVFDLDPLSFDKWVPFLRRALDKNQLDPVIDELENSIEDNFQGLELQLLQDSQMNDKLETSIDEIANIQGMVQDTLSSEISKFQIRLSESANELIVKKQMYVNNKKISLKISEATILITKVVRILELSSKCQELITERKFFKVLQNLDSLEKLYLQEFKNYNFQFLIEIYNSIPFLQKVTKDECINLIRNSLNLNLGKNLIKVGQEFVAIYENELLPQWLETRSKMKLTNFKFNSPIEISMRDESFLAKLNLGEFFQLDDFHDSIMIFQNLNELSVLSGEFNKEYELRKTKLMYPLIWKKNKTAAYQMDSLLRGTGTTPGSTAHDVSTDDPFTQSLSLHFLQDYFLKILGFLLYDINLNKATEFILVDNNYNSTNEFWDGLMDRLSPYLSYFIDEKLKTEEDMIKLKDFLCIYVAILENFKLNIEPLYKILVSIFEKFCSVSLRAFDDEFQILLNDDDFMPLSINDKTLYEKVLKICWMKEGEHLSLPDPTNGEPFAVTLPFSPLYPMTCTLAKKTYSKITAFLSIFYRHELHTLNNILVKTMDDIFNDIVNKKIRSKLESTSREEIAQILVNLDYFIIAAKEFSNFMTRENILQNPDMEIRLSSIKYLAESRKLAETKLIELIDSKISDILETIEIDWQITEVRQDPDISIIDLAQFLEMMFASTLQNLPYSVQTLLIFREFDSLTRQFMGLLLHDTPSTITHESIMNFEVDVNYLESIIPRIFPSTPGTIDSNGYQSPMTPSTPTFPNANGVDAPTLFENNIKSLEATFMELKQCIELLKTQGKDYNEPEIRLRKYSRIRQEDAALLLSKIQHFVSSVEGANGDDTSVMDSSSIFNSESASVIDSNTSRIAKFFNRR
Consider B2, for which the binding result in assay [2] was “binds”.

B3: Sec8 (protein, UniProt P32855 1-1065)
chain: MDYLKPAQKGRRRGLSINSLSETQQSAMNSSLDHLQNDLNRINLQWNRILSDNTNPLELALAFLDDTSVGLGHRYEEFNQLKSQIGSHLQDVVNEHSQVFNTNVASYGKAVSSIMQAQEQTLNLKNCLKEANEKITTDKGSLQELNDNNLKYTKMIDVLVNIEELLQIPEKIEENIRKENFHQVQILLERGFILMNNKSLKTVEILKPINQQLELQEHLLFNNLIEEIHDIMYSKSNKTNFTRVTNNDIFKIISISHNGFTSLENYLYNIVNIDIMEHSKTINKNLEQFIHDQSLNKGNIMLQENAATQAPLAPSRNQENEGFNRIGFLLKTINNINKLPVAFNIITERAKEEIHNIIVKSTESIRSKHPSLLKMATSLKNDNHFGLPVQDILSIILRECFWEIFLKLLYAIQCHRAIFEMSNILQPTSSAKPAFKFNKIWGKLLDEIELLLVRYINDPELISSNNGSIKPINGATNNAPTLPKRKNPKIFSLEYNIEDNSSVKDQAFELKALLKDIFPGFSVSSNMDLDSIYVKDESFEQDEPLVPPSVFNMKVILDPFLLFTQSTSTIVPSVLTQNTISSLTFFDDYMNKSFLPKIQMTMDYLFTVEVESNNPYALELSDENHNIFKTALDFQRLFYNLLNVFNTANTFREKISYCILDLLNHFYNYYLGLFNSLIGTSDRHLTRKIITAWLQNGILMDQEQKILNGDETLFHEESIELFKEIPHFYQAGKGLSKSDLFNNLTLDTILQFSASVLWILNWLPGLKKAINIDEVSQEPMLDADRLRSSWTFSESMDLNYSNPSSSPNSLGNLKILLDDKASKKFDETIDGFKTLKFKLITILRFNIRALCIYDIGSFFQNTKIWNMDVGSIELDQNIASLISELRRTESKLKQQLPEKEKNSIFIGLDIVNNYALIKGAKSIKVLNHNGIKKMLRNVNVLQHAYRNLSSEPSKINMNVTMNFYSLCGSSEAELFEYIKDNELPHCSVEDLKTILRLQFSEEMHRQLKRQSTSSTKGSIKPSNKRYTEALEKLSNLEKEQSKEGARTKIGKLKSKLNAVHTANEK
Regarding B3, in assay [2], the binding result is recorded as “binds”.
